We go through 2 molecules from paper PMC9044575.

Results are given in words; binding and its absence hold for the method and conditions named. In cells and extracts the contact can be indirect. Some results given as binding are weak or reduced against the parent protein; the word gives no strength.

Experiment [1] has as its target T1, Developmental pluripotency-associated 3 (mouse (endogenous in mouse ES cells)) (UniProt Q8QZY3).
T1 sequence: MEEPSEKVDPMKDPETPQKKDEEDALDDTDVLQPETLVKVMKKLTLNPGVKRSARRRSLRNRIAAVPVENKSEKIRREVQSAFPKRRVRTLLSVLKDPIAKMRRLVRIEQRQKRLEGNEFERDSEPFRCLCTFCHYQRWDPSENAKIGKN
The experiment is described as follows: co-IP; mouse ES cells; immunoprecipitation with anti-Nanog antibody and with anti-Dppa3 antibody, blot.

Experiment [2] has as its target T2, Nanog (mouse (endogenous in mouse ES cells)) (UniProt Q80Z64).
T2 sequence: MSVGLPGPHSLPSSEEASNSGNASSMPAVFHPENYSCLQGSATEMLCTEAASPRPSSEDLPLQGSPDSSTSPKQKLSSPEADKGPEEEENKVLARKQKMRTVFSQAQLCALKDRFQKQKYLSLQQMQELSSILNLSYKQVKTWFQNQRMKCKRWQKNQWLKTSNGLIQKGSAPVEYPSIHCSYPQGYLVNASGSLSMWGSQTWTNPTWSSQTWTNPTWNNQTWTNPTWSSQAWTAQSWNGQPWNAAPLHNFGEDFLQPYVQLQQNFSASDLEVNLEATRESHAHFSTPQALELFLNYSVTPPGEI
Described as above.

B1: Nanog (protein, UniProt Q80Z64 1-305)
chain: T2 sequence
For the molecule B1, the binding result in experiment [1] is listed as “binds”.

B2: Developmental pluripotency-associated 3 (protein, UniProt Q8QZY3 1-150)
chain: T1 sequence
On to B2, for which the binding result in experiment [2] is “binds”.
